In the supplement of paper PMC10849652:
The other results are listed elsewhere or left out.

Chains of the proteins cited; added tags and fusions are not shown. Lines headed by an entry give the natural chain unless they say otherwise; changes in a name come on top.
UniProt Q8N960: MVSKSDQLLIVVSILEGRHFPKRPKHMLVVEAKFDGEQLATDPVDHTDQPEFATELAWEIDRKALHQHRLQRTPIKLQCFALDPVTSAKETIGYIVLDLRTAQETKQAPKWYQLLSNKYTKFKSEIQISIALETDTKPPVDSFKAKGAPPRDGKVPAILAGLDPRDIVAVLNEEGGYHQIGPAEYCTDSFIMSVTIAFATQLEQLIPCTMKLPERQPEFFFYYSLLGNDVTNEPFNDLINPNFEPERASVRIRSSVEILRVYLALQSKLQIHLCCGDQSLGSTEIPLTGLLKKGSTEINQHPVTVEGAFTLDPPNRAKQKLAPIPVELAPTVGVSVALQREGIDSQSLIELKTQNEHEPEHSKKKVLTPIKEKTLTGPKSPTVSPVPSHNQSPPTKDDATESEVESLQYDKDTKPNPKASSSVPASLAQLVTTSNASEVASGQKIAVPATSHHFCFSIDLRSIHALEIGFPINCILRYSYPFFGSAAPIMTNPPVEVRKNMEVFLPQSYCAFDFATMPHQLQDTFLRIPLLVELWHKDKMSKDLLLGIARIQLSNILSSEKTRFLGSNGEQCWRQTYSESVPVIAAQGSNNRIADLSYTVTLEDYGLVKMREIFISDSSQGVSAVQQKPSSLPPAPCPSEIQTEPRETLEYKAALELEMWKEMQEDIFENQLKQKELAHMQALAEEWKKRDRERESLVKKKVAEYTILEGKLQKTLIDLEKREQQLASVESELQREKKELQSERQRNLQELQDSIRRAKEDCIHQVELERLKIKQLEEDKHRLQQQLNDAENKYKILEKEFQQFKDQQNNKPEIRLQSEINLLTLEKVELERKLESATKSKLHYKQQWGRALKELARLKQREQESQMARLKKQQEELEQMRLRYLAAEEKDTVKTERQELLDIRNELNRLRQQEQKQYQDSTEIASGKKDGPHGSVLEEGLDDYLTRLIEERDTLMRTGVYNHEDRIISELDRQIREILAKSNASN
UniProt Q7Z7K6: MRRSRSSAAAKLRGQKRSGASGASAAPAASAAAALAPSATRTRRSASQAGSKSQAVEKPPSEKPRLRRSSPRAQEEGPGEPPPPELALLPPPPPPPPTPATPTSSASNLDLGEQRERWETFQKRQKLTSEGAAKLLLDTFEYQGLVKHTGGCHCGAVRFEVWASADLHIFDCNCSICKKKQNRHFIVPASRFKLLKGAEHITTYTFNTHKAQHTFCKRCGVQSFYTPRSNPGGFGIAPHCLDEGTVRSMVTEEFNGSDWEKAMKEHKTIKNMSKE
UniProt Q9BSY4: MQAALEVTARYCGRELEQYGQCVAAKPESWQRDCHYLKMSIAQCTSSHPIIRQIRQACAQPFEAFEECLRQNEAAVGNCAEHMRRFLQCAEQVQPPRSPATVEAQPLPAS
UniProt Q9HC77: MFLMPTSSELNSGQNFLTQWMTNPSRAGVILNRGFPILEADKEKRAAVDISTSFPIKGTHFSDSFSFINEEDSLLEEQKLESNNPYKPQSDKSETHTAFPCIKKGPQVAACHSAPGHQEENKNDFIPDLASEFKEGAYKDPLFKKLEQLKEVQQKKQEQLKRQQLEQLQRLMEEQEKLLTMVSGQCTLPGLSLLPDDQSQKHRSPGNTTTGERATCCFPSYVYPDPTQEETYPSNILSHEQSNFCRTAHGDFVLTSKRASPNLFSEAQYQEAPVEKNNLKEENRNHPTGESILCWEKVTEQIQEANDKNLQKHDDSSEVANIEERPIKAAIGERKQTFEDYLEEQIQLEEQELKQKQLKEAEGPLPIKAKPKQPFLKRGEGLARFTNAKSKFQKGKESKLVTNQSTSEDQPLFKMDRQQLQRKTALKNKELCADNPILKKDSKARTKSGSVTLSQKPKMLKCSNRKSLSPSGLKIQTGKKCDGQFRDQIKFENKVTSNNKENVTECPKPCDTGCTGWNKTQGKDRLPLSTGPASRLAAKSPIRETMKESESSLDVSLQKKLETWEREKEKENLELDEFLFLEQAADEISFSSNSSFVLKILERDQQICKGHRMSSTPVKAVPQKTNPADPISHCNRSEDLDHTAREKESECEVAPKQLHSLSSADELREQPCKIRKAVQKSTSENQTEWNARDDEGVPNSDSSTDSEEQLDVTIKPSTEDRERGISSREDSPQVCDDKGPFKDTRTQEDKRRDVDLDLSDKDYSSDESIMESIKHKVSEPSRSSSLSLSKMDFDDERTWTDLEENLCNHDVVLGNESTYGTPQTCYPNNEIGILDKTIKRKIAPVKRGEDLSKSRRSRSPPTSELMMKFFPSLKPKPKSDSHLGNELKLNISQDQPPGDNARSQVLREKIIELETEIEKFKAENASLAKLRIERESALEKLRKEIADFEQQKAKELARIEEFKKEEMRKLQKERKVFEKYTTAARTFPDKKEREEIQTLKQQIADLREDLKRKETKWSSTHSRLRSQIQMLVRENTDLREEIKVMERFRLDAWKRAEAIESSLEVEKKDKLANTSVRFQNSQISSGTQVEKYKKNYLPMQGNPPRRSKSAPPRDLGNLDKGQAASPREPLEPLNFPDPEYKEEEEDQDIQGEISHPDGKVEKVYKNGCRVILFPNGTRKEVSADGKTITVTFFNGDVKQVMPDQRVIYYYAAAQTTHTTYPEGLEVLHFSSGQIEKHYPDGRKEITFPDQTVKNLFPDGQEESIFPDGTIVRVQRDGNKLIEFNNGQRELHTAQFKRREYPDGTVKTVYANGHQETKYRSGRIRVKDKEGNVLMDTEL
UniProt P55290: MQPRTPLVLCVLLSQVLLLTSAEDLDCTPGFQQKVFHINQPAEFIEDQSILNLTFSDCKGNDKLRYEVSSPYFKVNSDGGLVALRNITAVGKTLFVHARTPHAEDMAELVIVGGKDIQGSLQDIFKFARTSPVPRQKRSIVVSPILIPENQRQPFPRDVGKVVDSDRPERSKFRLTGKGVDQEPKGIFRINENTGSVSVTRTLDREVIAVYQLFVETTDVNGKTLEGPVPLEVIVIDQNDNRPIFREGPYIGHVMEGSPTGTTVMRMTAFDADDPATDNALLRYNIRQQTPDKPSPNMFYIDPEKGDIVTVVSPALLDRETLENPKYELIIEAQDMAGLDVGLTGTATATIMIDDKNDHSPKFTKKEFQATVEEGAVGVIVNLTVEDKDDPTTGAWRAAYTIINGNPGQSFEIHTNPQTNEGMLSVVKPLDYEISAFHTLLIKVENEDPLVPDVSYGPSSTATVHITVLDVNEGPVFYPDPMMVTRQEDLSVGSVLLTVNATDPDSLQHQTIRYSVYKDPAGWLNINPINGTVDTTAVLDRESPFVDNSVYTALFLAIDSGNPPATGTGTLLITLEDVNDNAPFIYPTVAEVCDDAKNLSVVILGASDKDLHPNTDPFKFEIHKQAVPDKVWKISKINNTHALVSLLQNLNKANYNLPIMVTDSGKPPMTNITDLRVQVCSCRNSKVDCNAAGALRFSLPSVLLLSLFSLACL
UniProt Q711Q0: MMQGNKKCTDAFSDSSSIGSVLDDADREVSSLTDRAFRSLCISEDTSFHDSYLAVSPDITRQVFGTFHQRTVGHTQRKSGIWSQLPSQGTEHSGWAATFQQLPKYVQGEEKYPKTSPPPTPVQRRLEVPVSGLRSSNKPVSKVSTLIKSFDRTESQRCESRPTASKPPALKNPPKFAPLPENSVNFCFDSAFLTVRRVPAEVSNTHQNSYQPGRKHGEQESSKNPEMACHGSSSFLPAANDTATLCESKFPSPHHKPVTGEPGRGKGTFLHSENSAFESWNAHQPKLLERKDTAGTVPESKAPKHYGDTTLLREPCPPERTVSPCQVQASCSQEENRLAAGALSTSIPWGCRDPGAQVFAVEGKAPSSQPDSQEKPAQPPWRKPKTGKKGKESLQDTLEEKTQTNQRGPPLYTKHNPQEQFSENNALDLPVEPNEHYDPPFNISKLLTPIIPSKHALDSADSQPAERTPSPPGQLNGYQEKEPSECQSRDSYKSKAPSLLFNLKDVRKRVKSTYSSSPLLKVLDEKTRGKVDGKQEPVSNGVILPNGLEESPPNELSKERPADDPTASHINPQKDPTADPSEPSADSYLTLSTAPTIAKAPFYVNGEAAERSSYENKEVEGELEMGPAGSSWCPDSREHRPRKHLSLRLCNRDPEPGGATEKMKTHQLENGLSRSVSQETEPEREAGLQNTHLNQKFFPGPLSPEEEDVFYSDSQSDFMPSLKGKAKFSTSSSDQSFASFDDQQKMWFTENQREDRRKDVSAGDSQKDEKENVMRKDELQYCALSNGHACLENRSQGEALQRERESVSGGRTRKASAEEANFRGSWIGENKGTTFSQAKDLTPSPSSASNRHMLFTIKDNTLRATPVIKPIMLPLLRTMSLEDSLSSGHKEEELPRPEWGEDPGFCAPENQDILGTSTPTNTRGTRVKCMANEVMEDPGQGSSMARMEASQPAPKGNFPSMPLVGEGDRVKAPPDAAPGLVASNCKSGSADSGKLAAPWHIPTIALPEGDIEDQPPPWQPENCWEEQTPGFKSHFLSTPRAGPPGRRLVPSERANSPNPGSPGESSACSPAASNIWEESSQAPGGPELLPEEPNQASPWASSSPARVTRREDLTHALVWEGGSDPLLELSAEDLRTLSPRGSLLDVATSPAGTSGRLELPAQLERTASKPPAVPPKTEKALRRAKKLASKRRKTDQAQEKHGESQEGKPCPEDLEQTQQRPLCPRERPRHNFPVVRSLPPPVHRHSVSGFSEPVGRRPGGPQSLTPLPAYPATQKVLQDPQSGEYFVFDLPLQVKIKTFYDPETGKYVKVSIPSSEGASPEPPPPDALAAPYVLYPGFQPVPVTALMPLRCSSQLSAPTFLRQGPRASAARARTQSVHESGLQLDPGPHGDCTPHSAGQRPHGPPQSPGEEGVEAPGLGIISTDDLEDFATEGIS
UniProt O94986: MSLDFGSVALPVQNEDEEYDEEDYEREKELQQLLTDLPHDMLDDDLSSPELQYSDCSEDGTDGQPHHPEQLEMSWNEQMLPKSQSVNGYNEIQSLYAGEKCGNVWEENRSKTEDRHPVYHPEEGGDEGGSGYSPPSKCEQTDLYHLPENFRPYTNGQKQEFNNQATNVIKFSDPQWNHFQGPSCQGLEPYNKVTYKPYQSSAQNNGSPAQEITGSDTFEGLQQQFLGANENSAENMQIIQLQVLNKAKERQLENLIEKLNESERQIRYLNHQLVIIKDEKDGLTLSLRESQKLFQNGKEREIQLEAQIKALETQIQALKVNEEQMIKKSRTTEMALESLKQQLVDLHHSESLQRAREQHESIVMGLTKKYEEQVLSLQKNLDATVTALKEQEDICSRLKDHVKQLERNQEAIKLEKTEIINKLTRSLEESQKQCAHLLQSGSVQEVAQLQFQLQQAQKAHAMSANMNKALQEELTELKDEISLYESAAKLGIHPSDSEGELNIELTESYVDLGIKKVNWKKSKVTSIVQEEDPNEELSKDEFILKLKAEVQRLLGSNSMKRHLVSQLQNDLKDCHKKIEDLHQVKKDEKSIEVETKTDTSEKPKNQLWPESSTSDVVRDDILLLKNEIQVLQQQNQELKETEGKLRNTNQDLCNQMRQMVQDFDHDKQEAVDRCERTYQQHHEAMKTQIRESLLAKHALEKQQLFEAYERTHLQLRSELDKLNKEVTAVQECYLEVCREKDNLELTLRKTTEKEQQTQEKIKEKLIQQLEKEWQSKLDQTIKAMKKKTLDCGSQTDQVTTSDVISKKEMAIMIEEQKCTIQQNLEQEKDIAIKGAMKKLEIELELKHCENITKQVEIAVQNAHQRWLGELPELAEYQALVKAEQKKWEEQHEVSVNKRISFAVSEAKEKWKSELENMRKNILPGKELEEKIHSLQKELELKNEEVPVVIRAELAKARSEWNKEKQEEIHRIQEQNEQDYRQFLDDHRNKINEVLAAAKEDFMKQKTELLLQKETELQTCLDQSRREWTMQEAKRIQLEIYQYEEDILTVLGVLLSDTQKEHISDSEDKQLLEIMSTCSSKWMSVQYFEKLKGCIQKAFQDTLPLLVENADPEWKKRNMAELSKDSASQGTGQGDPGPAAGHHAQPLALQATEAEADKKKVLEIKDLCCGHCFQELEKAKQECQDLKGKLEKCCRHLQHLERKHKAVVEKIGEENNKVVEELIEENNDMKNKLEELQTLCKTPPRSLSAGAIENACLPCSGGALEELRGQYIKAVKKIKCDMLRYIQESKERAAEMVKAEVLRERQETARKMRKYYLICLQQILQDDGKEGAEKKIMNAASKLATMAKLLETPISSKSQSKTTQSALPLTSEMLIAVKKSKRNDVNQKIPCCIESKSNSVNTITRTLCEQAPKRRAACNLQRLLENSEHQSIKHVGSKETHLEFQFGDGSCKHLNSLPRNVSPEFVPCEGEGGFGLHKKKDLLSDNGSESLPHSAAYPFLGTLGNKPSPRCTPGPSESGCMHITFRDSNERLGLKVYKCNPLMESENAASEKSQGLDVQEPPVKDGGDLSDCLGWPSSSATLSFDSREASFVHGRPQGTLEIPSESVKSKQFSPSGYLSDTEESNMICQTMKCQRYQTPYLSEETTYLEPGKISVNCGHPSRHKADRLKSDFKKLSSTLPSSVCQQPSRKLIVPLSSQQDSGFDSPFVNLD

Legend:
Experiment in all cases: log2 fold change, soluble protein after heating vs DMSO (PISA); higher = thermal stabilisation; K562 cells, 10 uM, 30 min; active = over 0.2 and 3.5 SD of the protein, either way, in both replicates (recomputed)
saracatinib = compound: CN1CCN(CCOc2cc(OC3CCOCC3)c3c(Nc4c(Cl)ccc5c4OCO5)ncnc3c2)CC1 [saracatinib]
In short: (§1)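 K562 cells at 2×10^6 cells/mL were treated with 10 μM compound for 30 min. Aliquots were heated for 3 min across 48°C-58°C, pooled, and extracted in PBS with 0.5% NP-40 at 4°C; soluble protein was the supernatant after 21,000xg for 90 min. Soluble protein was quantified by TMTpro 16plex LC-MS/MS with channel sums equalised, and reported as log2 fold change in thermal stability against DMSO controls, with values from duplicates.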

sotrastaurin = compound: CN1CCN(c2nc(C3=C(c4c[nH]c5ccccc45)C(=O)NC3=O)c3ccccc3n2)CC1 [sotrastaurin]
In short: as §1

[1] = compound: CNC(=O)C1=CC=CC=C1NC2=NC(=NC=C2Cl)NC3=C(C=C(C=C3)N4CCOCC4)OC
In short: as §1

defactinib = compound: CNC(=O)c1ccc(Nc2ncc(C(F)(F)F)c(NCc3nccnc3N(C)S(C)(=O)=O)n2)cc1 [defactinib]
In short: as §1

rucaparib = compound: CNCc1ccc(-c2[nH]c3cc(F)cc4c3c2CCNC4=O)cc1 [rucaparib]
In short: as §1

[2] = compound: CNc1nc(-c2ccc3c(N)n[nH]c3c2)cc(N2C[C@@H](C(=O)NC3CCCCC3)CC[C@H]2C)n1
In short: as §1

encorafenib = compound: COC(=O)N[C@@H](C)CNc1nccc(-c2cn(C(C)C)nc2-c2cc(Cl)cc(NS(C)(=O)=O)c2F)n1 [encorafenib]
In short: as §1

[3] = compound: COC(=O)[C@H](CCSC)NC(=O)C1=C(C=C(C=C1)NC[C@H](CS)N)C2=CC=CC=C2
In short: as §1

Tubastatin A = compound: CN1CCc2c(c3ccccc3n2Cc2ccc(C(=O)NO)cc2)C1 [Tubastatin A]
In short: as §1

alvocidib = compound: CN1CC[C@H](c2c(O)cc(O)c3c(=O)cc(-c4ccccc4Cl)oc23)[C@H](O)C1 [alvocidib]
In short: as §1

Measured: log2 fold change

CDK4 (UniProt P11802)
inactive: saracatinib -0.03 | sotrastaurin -0.028 | [1] 0.07 | defactinib -0.039 | rucaparib 0.051 | [2] -0.057 | encorafenib -0.008 | [3] -0.07

CHERP (UniProt Q8IWX8)
inactive: saracatinib 0.045 | sotrastaurin -0.167 | Tubastatin A 0.119 | [1] -0.006 | defactinib -0.29 | rucaparib 0.022 | [2] -0.046 | encorafenib 0.058 | [3] 0.002

CDS1 (UniProt Q92903)
inactive: saracatinib 0.094 | alvocidib 0.04 | [1] -0.128 | [2] 0.115

CEP170B (UniProt Q9Y4F5)
inactive: saracatinib -0.022 | sotrastaurin -0.081 | defactinib 0.112 | rucaparib 0.234 | [2] 0.13 | encorafenib 0.095 | [3] -0.016

CERT isoform 3 (UniProt Q9Y5P4)
inactive: saracatinib 0.033 | sotrastaurin 0.014 | Tubastatin A -0.105 | [1] 0.131 | defactinib -0.097 | rucaparib -0.009 | [2] 0.116 | encorafenib -0.015 | [3] 0.047

CENPU (UniProt Q71F23)
inactive: saracatinib 0.151 | sotrastaurin 0.1 | Tubastatin A 0.043 | [1] 0.152 | [2] 0.178

CHAF1A (UniProt Q13111)
inactive: saracatinib 0.008 | sotrastaurin 0.004 | [1] 0.133 | rucaparib 0.198 | [2] -0.125 | encorafenib 0.094

CHMP4C (UniProt Q96CF2)
inactive: saracatinib 0 | sotrastaurin 0.042 | Tubastatin A -0.009 | [1] -0.173 | defactinib -0.047 | rucaparib -0.032 | [2] -0.138 | encorafenib -0.097 | [3] 0.007

2 consecutive entries from above, for reference:
CHAF1A (UniProt Q13111)
inactive: saracatinib 0.008 | sotrastaurin 0.004 | [1] 0.133 | rucaparib 0.198 | [2] -0.125 | encorafenib 0.094

CHMP4C (UniProt Q96CF2)
inactive: saracatinib 0 | sotrastaurin 0.042 | Tubastatin A -0.009 | [1] -0.173 | defactinib -0.047 | rucaparib -0.032 | [2] -0.138 | encorafenib -0.097 | [3] 0.007

Going on with the list:

CHEK1 (UniProt O14757)
active: sotrastaurin -0.271 | [1] -0.32
inactive: saracatinib 0 | Tubastatin A 0.09 | defactinib -0.031 | rucaparib -0.071 | [2] 0.003 | encorafenib 0.043 | [3] 0

CHCHD4 isoform 2 (UniProt Q8N4Q1)
inactive: saracatinib 0.277 | sotrastaurin 0.003 | Tubastatin A 0.061 | [1] 0.199 | defactinib -0.049 | rucaparib -0.007 | [2] 0.202 | encorafenib -0.046 | [3] -0.034

CEP120 (UniProt Q8N960)
inactive: sotrastaurin 0.171 | alvocidib 0.376 | Tubastatin A 0.114 | defactinib 0.046 | [3] -0.101

CDH5 (UniProt P33151)
inactive: sotrastaurin 0.015 | [1] 0.154 | rucaparib 0.127 | encorafenib -0.159

CDK2AP1 (UniProt O14519)
inactive: sotrastaurin -0.11 | [1] -0.045 | rucaparib -0.1 | encorafenib -0.014

CENPX (UniProt A8MT69)
inactive: sotrastaurin -0.132 | [1] 0.068 | rucaparib -0.046 | encorafenib -0.172

CELSR2 (UniProt Q9HCU4)
inactive: alvocidib 0.025

CENPM (UniProt Q9NSP4)
inactive: saracatinib -0.021 | [1] 0.044 | [2] -0.425

CHFR (UniProt Q96EP1)
inactive: Tubastatin A 0.12 | defactinib -0.208 | rucaparib 0.063 | encorafenib 0.088 | [3] 0.007

CHD1L (UniProt Q86WJ1)
inactive: sotrastaurin 0.086 | defactinib 0.005 | [3] 0.228

CEND1 (UniProt Q8N111)
inactive: sotrastaurin 0.015 | Tubastatin A 0.081 | [1] -0.064

CDCA8 (UniProt Q53HL2)
inactive: sotrastaurin 0.035

CEP170 isoform 3 (UniProt Q5SW79)
inactive: [1] -0.109

CDK5RAP2 (UniProt Q96SN8)
inactive: Tubastatin A 0.202 | defactinib 0.102 | [3] -0.59

CFAP58 (UniProt Q5T655)
inactive: encorafenib 0.265
active: rucaparib -1.21

CDC42EP2 (UniProt O14613)
inactive: sotrastaurin -0.044 | Tubastatin A 0.14 | [1] -0.051

CDC42BPG (UniProt Q6DT37)
inactive: [1] 0.058 | defactinib -0.04 | rucaparib 0.126 | encorafenib -0.099 | [3] -0.06

CEP41 (UniProt Q9BYV8)
inactive: sotrastaurin -0.011 | [1] -0.104 | rucaparib 0.246 | encorafenib -0.301

CENPV (UniProt Q7Z7K6)
inactive: sotrastaurin 0.205 | alvocidib 0.111

CHMP2A (UniProt M0R1T5)
inactive: Tubastatin A 0.086

CEMIP2 (UniProt Q9UHN6)
inactive: saracatinib -0.104 | Tubastatin A -0.005 | [1] 0.032 | defactinib 0.017 | rucaparib 0.046 | [2] -0.026 | encorafenib -0.1 | [3] 0.029

CHCHD5 (UniProt Q9BSY4)
inactive: sotrastaurin -0.171 | alvocidib -0.076 | [1] -0.032

CDC42SE2 (UniProt Q9NRR3)
inactive: sotrastaurin -0.013 | alvocidib -0.042 | Tubastatin A 0.241 | [1] -0.097 | defactinib -0.141 | rucaparib -0.073 | encorafenib -0.067 | [3] -0.597

CENPK (UniProt Q9BS16)
inactive: alvocidib 0.097 | [1] -0.047 | defactinib -0.197 | rucaparib 0.007 | encorafenib -0.006 | [3] -0.044

CHCHD10 (UniProt Q8WYQ3)
inactive: [1] -0.065 | defactinib -0.243 | rucaparib 0.076 | encorafenib 0.02 | [3] 0.091

CFL1 (UniProt E9PP50)
inactive: [1] 0.251

CDC7 (UniProt O00311)
inactive: defactinib -0.166 | [3] 0.142

CEP83 (UniProt Q9Y592)
inactive: rucaparib 0.182 | encorafenib -0.073

CDK2AP2 (UniProt O75956)
inactive: [1] -0.092 | rucaparib 0.134 | encorafenib -0.038

CDNF (UniProt Q49AH0)
inactive: saracatinib 0.056 | defactinib -0.029 | [2] 0.056 | [3] 0.1

CEP57 (UniProt Q86XR8)
inactive: sotrastaurin -0.144 | alvocidib 0.04

CENPJ (UniProt Q9HC77)
inactive: sotrastaurin 0.034 | Tubastatin A 0.149 | [1] -0.08

CDH13 isoform 4 (UniProt P55290)
inactive: saracatinib -0.181 | [2] 0.107

CDC6 (UniProt Q99741)
inactive: saracatinib 0.183 | [2] 0.185

CEBPG (UniProt P53567)
inactive: alvocidib -0.062 | rucaparib 0.15 | encorafenib -0.095

CEP85 (UniProt Q6P2H3)
inactive: saracatinib -0.033 | defactinib 0.064 | rucaparib 0.263 | [2] -0.021 | encorafenib 0.451 | [3] -0.05

CDCA2 (UniProt Q69YH5)
inactive: sotrastaurin -0.148 | Tubastatin A 0.217 | [1] -0.152 | defactinib -0.063 | rucaparib 0.011 | encorafenib 0.318 | [3] -0.03

CEFIP (UniProt Q711Q0)
inactive: [1] -0.182 | defactinib -0.224 | [3] -0.147

CFAP47 (UniProt Q6ZTR5)
inactive: saracatinib 0.001 | defactinib -0.063 | rucaparib -0.062 | [2] -0.142 | encorafenib -0.173 | [3] 0.084

CDC42EP3 (UniProt Q9UKI2)
inactive: [1] -0.232

CEP152 (UniProt O94986)
inactive: sotrastaurin -0.094 | Tubastatin A 0.046 | [1] -0.285 | defactinib -0.044 | rucaparib -0.092 | encorafenib -0.015 | [3] 0.101
